The values below come from PMC7479279.

These are yes or no findings as the source states them, for the method shown. Binding seen in cells or lysates may run through a third protein. Some binding calls cover weakened binding; strength is not graded here. For some assays here: Sequences can lack the tags named with a protein.

The target of test [1] is T1, Siglec-E (endogenous, mouse bone marrow neutrophils) (mouse (endogenous in bone marrow neutrophils)) (UniProt Q91Y57).
T1 sequence: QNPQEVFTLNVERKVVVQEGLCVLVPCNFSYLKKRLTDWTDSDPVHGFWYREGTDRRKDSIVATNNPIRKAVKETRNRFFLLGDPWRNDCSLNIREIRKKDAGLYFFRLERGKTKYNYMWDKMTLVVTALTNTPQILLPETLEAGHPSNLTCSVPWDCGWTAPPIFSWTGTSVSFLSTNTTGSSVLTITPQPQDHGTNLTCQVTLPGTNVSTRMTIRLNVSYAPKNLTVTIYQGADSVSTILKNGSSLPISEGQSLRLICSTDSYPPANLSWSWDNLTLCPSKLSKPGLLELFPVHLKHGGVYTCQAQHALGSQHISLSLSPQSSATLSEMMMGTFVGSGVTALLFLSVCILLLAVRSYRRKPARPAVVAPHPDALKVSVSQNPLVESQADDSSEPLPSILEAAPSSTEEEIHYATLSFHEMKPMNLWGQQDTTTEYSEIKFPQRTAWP
As to the kind of experiment: co-IP; endogenous proteins; neutrophils from bone marrow of WT littermates treated with E. coli 25922 (MOI of 100:1) for 5 h at 37°C in vitro or untreated; Siglec-E immunoprecipitated with Siglec-E antibodies, blotted for gp91^phox, p47^phox and Siglec-E; Siglece^-/- neutrophils alongside.

Test [2] has as its target T2, Siglec-E point mutant M-4 (both Y432F and Y455F) (mouse) (UniProt Q91Y57).
T2 sequence: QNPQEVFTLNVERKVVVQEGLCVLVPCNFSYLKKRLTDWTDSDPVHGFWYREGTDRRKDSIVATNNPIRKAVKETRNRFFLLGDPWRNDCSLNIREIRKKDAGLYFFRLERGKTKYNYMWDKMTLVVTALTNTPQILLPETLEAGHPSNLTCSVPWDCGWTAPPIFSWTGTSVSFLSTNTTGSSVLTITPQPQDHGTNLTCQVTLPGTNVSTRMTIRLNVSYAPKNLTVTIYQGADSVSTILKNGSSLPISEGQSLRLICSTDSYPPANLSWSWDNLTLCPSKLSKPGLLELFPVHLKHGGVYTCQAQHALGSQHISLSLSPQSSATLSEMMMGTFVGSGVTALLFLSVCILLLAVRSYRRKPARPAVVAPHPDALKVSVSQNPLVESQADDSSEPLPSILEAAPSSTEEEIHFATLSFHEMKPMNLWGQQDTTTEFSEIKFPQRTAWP
The test is described as follows: co-IP; lysates of HEK293T cells co-transfected with wild-type or mutated Siglec-E, gp91^phox and/or FLAG-p47^phox; immunoprecipitation with antibodies for Siglec-E or FLAG, immunoblot. For orientation: A western blot detects proteins with antibodies after separation by electrophoresis.

The target of test [3] is T3, Siglec-E point mutant M-1 (R126D) (mouse) (UniProt Q91Y57).
T3 sequence: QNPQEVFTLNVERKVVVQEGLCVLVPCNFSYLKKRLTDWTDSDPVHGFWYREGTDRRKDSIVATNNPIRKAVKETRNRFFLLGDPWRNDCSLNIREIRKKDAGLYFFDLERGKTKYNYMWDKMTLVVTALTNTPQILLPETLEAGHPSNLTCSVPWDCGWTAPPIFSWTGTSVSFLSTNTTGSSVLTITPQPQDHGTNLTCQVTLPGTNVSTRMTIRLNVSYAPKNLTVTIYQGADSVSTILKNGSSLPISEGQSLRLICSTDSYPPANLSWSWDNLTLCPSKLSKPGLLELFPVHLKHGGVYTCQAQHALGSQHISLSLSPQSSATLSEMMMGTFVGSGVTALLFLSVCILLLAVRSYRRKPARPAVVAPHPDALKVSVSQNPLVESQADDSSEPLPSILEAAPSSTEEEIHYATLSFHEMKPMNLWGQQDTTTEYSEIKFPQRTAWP
Described as above.

The target in test [4] is T4, wild-type Siglec-E (transfected in HEK293T cells) (mouse) (UniProt Q91Y57).
T4 sequence: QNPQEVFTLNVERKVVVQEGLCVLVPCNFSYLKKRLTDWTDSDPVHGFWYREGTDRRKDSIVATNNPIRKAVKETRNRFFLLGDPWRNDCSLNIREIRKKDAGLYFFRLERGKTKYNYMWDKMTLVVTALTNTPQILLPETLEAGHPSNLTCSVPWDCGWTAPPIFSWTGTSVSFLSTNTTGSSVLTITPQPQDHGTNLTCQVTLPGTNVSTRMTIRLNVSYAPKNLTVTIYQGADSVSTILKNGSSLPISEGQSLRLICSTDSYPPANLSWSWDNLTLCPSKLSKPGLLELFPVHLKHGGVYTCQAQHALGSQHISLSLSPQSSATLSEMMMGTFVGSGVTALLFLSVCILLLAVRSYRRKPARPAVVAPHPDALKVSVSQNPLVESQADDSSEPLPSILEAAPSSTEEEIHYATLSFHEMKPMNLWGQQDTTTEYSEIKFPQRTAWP
Described as above.

For test [5], the target named is T5, Siglec-E point mutant M-2 (Y432F) (mouse) (UniProt Q91Y57).
T5 sequence: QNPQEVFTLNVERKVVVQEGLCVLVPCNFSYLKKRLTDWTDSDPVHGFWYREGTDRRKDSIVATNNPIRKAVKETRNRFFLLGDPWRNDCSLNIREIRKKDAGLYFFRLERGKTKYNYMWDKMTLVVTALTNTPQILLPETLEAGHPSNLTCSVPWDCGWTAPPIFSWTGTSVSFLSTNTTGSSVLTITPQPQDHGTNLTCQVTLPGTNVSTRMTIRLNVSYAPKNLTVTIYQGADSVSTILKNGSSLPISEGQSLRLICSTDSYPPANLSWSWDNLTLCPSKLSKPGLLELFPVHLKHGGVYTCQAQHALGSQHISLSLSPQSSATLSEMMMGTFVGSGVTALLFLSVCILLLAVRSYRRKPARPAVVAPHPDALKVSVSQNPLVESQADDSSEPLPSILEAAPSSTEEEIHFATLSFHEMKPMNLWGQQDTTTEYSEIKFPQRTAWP
The description is as above.

Test [6] has as its target T6, Siglec-E point mutant M-3 (Y455F) (mouse) (UniProt Q91Y57).
T6 sequence: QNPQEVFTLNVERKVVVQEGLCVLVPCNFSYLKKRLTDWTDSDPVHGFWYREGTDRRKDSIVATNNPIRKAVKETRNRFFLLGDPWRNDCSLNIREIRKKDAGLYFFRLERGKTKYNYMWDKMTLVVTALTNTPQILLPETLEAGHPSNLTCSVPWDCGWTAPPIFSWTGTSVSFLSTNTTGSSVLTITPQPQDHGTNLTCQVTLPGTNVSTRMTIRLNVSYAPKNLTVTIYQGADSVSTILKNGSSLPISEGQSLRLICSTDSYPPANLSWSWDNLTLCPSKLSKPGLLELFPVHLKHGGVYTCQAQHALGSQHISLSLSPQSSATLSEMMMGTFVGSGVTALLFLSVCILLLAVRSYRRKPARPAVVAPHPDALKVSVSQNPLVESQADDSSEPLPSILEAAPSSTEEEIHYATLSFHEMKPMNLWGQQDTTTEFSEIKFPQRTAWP
The test is described as above.

The target of test [7] is T1, Siglec-E (endogenous, mouse bone marrow neutrophils) (mouse (endogenous in bone marrow neutrophils)). As to the kind of experiment: co-IP; endogenous proteins; neutrophils from Tlr4^-/- bone marrow treated with E. coli 25922 (MOI of 100:1) for 5 h at 37°C in vitro; Siglec-E immunoprecipitated with Siglec-E antibodies, blotted for gp91^phox, p47^phox, TLR4 and Siglec-E.

B1: gp91^phox (endogenous, mouse bone marrow neutrophils) (protein, UniProt Q61093 1-570)
chain: MGNWAVNEGLSIFVILVWLGLNVFLFINYYKVYDDGPKYNYTRKLLGSALALARAPAACLNFNCMLILLPVCRNLLSFLRGSSACCSTRIRRQLDRNLTFHKMVAWMIALHTAIHTIAHLFNVEWCVNARVGISDRYSIALSDIGDNENEEYLNFAREKIKNPEGGLYVAVTRLAGITGIVITLCLILIITSSTKTIRRSYFEVFWYTHHLFVIFFIGLAIHGAERIVRGQTAESLEEHNLDICADKIEEWGKIKECPVPKFAGNPPMTWKWIVGPMFLYLCERLVRFWRSQQKVVITKVVTHPFKTIELQMKKKGFKMEVGQYIFVKCPKVSKLEWHPFTLTSAPEEDFFSIHIRIVGDWTEGLFNACGCDKQEFQDAWKLPKIAVDGPFGTASEDVFSYEVVMLVGAGIGVTPFASILKSVWYKYCDNATSLKLKKIYFYWLCRDTHAFEWFADLLQLLETQMQERNNANFLSYNIYLTGWDESQANHFAVHHDEEKDVITGLKQKTLYGRPNWDNEFKTIASEHPNTTIGVFLCGPEALAETLSKQSISNSESGPRGVHFIFNKENF
For the molecule B1, in test [1], the binding result is “binds”.

B2: gp91^phox (transfected in HEK293T cells) (protein, UniProt Q61093 1-570)
chain: MGNWAVNEGLSIFVILVWLGLNVFLFINYYKVYDDGPKYNYTRKLLGSALALARAPAACLNFNCMLILLPVCRNLLSFLRGSSACCSTRIRRQLDRNLTFHKMVAWMIALHTAIHTIAHLFNVEWCVNARVGISDRYSIALSDIGDNENEEYLNFAREKIKNPEGGLYVAVTRLAGITGIVITLCLILIITSSTKTIRRSYFEVFWYTHHLFVIFFIGLAIHGAERIVRGQTAESLEEHNLDICADKIEEWGKIKECPVPKFAGNPPMTWKWIVGPMFLYLCERLVRFWRSQQKVVITKVVTHPFKTIELQMKKKGFKMEVGQYIFVKCPKVSKLEWHPFTLTSAPEEDFFSIHIRIVGDWTEGLFNACGCDKQEFQDAWKLPKIAVDGPFGTASEDVFSYEVVMLVGAGIGVTPFASILKSVWYKYCDNATSLKLKKIYFYWLCRDTHAFEWFADLLQLLETQMQERNNANFLSYNIYLTGWDESQANHFAVHHDEEKDVITGLKQKTLYGRPNWDNEFKTIASEHPNTTIGVFLCGPEALAETLSKQSISNSESGPRGVHFIFNKENF
With B2, the binding entry in test [2], in test [3], in test [4], in test [5] and in test [6] was “binds” throughout.

B3: p47^phox (endogenous, mouse bone marrow neutrophils) (protein, UniProt Q09014 1-390)
chain: MGDTFIRHIALLGFEKRFIPSQHYVYMFLVKWQDLSEKVVYRKFTEIYEFHKMLKEMFPIEAGEIHTENRVIPHLPAPRWFDGQRAAESRQGTLTEYFNGLMGLPVKISRCPHLLDFFKVRPDDLKLPTDSQAKKPETYLVPKDGKNNVADITGPIILQTYRAIADYEKSSGTEMTVATGDVVDVVEKSESGWWFCQMKTKRGWVPASYLEPLDSPDEAEDPDPNYAGEPYVTIKAYAAVEEDEMSLSEGEAIEVIHKLLDGWWVVRKGDITGYFPSMYLQKAGEEITQAQRQIRGRGAPPRRSTIRNAQSIHQRSRKRLSQDTYRRNSVRFLQQRRRPGRPGPLSTDGTKDNPSTPRVKPQPAVPPRPSSDLILHRCTESTKRKLTSAV
As to B3, the binding result in test [1] and in test [7] was “binds” in each case.

B4: FLAG-p47^phox (transfected in HEK293T cells) (protein, UniProt Q09014 1-390)
chain: MGDTFIRHIALLGFEKRFIPSQHYVYMFLVKWQDLSEKVVYRKFTEIYEFHKMLKEMFPIEAGEIHTENRVIPHLPAPRWFDGQRAAESRQGTLTEYFNGLMGLPVKISRCPHLLDFFKVRPDDLKLPTDSQAKKPETYLVPKDGKNNVADITGPIILQTYRAIADYEKSSGTEMTVATGDVVDVVEKSESGWWFCQMKTKRGWVPASYLEPLDSPDEAEDPDPNYAGEPYVTIKAYAAVEEDEMSLSEGEAIEVIHKLLDGWWVVRKGDITGYFPSMYLQKAGEEITQAQRQIRGRGAPPRRSTIRNAQSIHQRSRKRLSQDTYRRNSVRFLQQRRRPGRPGPLSTDGTKDNPSTPRVKPQPAVPPRPSSDLILHRCTESTKRKLTSAV
As for B4, the binding entry in test [3], in test [4] and in test [6] was “binds” each time.
